Data taken from PubChem BioAssay AID1159506, deposited by NCATS (2015).

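Genome-wide siRNA knockdown in TC32 Ewing sarcoma cells, comparing luciferase light from an NR0B1-promoter reporter with a CMV-promoter reporter 48 hours after transfection.
Each siRNA was applied at 20 nM.
A z-score of the log NR0B1-over-CMV signal, less the median of siRNAs with the same seed; more negative means a stronger specific loss of the NR0B1 reporter.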

This is part of the screen; most of the strongest results are not listed here.
Sequences are the guide (antisense) strand, without overhang.

Sequence,gene,seed-corrected z-score
UCCGUCACAACAGUCUCUG,TIMD4,-0.5741
ACACUUCCGAAUUCUAAGG,ASB9,-0.03143
UUAGAUCUCACAGUAUAAC,GPR160,-0.01592
UUCAAUCACAGCCUCGUGC,ANKRD27,-1.931
GAAAUACCUGUUAUUGGUU,LOC285074,0.2419
UAUGUUCGAAUGCAGUCAC,LAMA2,-1.131
UCAUAUUCUGGAAUACACG,DTWD1,0.03256
UGUAGUUAAAACCCAUCCU,GEMIN6,-0.7919
AGCCUAUUCACAGAAACUG,ARNT,-1.045
AUGUCUAUUGCAAAUGGCC,B3GAT1,-0.3679
UCUAGUACAUCGCCGAUUC,NT5C3A,-0.83
UCCGAAAGAACCAGUUUGC,CALCB,0.3058
UAUGCUUGAAUCCAGAACC,MTERF1,-0.7096
UUUGUAUCUUCAUGGAGCC,CRYBA1,-1.076
UUCGCGGUGAUUGUUACAG,LOC645984,-0.4722
AUUGCUACAAUUGCUAAUG,TMPRSS11F,-0.4267
UAGACAGUCACUUCGGUCC,CLNS1A,0.2037
UCUGUCUAUAGAUUUAAGG,SDCCAG3,0.6978
UCAGGUCAGAGAACAUGCC,LINGO2,2.791
UUCUCAUCGAAUAGGAUCG,GRM5,0.4682
UAAAUUGAGCUAGAUCAGC,CCT8L2,0.1299
AAAGAUAGCACCAUUAGGG,PPOX,-0.1185
AUUCAUAUCUUCGUGAUCG,RPL29P31,0.5565
ACUGCUACAAGGGUAGGCC,DKK2,1.905
UUCACUGUAAUCCUUGUUU,SLC35G3,-0.2019
GUAUCUGCCCAGGAAGUCC,KLRG2,-0.8092
UGAUUUGUCUGCAAAAGUC,CAPZB,0.4669
UUAGGUAUAAUUUGCGCCC,ZNF610,0.4195
UAGGUUUUCAGGCUUGACA,MAPKAPK3,-0.3474
AAAGGAGACCUUUUCGAUG,NUMBL,-0.2261
UUCCAUCUUAGGUUCGGUG,C16orf78,-0.6101
UUUGUCUGGAGGGUGAGUG,TAL2,-0.623
UUGAGGUCAAGUACCGUUG,KCNJ1,-0.6958
UUGACAGUUAAUAUCAGCC,KLF1,-0.4153
AUCGCUUUGUCAUACGUGC,PTPRJ,-1.155
UGGGCAAUAAGGACAUCCC,GNS,-0.03082
AUACAUAAUAGAGAUGUAG,RNF170,0.02623
UAGAUAGACACGAUGUGCU,ANKK1,-0.7484
AUACUACUGAUUGUUCUUC,KIAA1328,-0.6169
UCGUAGACAAACAUAUUUC,UBXN2A,-0.05601
UGCUGUUGUAGUAUGGGUG,SHC3,-0.9902
UUUCUCGAAAAGGUUGUCC,APBB1IP,-0.1097
UACUGUUGAGGAGCUGAUC,PROL1,0.4679
UAGUUGAUCCAUUGCAUUC,ING3,-0.5478
UCCAUCAUAACGACUAGUG,DBT,-0.1249
UCAGUGAUUUUCCAGGGCC,MAST4,-0.06238
AUCAGUACUAUACAUCUGG,ME1,0.1956
UAAUCGGAAUUCUUCAAUG,TLR4,-0.5695
AUAGCGAUGGUGAGUAUAC,FCAMR,0.8514
ACCGGUUAAACUCUUGCUC,KDM1A,-0.3495
UUUGUCCAAAACCAUAGUG,UTP23,-0.05828
UCAAUGUCACUUAAUGCAC,TMEM241,0.06884
UUUCGUAGUAUUCCAGCCG,IRS4,0.03859
UUUAUUAGCAUUGUAUUGG,LHFP,0.8443
AAACGGUCAAUCUUCUCAC,TBCD,0.00354
UCAGAGAACACGUCGCUGU,PKN1,-0.6285
AGAGAUUUUAGGACCGUAC,FAF1,1.295
UCACUUGAAUUGCUGUUCC,HHLA2,0.926
UCGAAAACCAGGAUGUUGC,LRP2,-0.42
UCAAUUGUUAGUAUCAGCG,AOX1,0.5595
AAUUAGACAUGUCAUCUGC,DCUN1D1,-0.07097
UUUUUCAGCAAGACUGUCG,NOTO,0.4
UUUCCGUAAGGUAAUCUCC,ROCK2,-0.1762
UUGAUUAUCGUGAGGGCCG,SETD4,0.2204
UUUCUGUUUCAUGCGCUCC,TTC31,0.6631

For reference, 5 entries once more:

{"sequence": "UUUGUCCAAAACCAUAGUG", "gene": "UTP23", "seed-corrected z-score": "-0.05828"}
{"sequence": "UCAGGUCAGAGAACAUGCC", "gene": "LINGO2", "seed-corrected z-score": "2.791"}
{"sequence": "AUAGCGAUGGUGAGUAUAC", "gene": "FCAMR", "seed-corrected z-score": "0.8514"}
{"sequence": "AAUUAGACAUGUCAUCUGC", "gene": "DCUN1D1", "seed-corrected z-score": "-0.07097"}
{"sequence": "UGUAGUUAAAACCCAUCCU", "gene": "GEMIN6", "seed-corrected z-score": "-0.7919"}